Results deposited as PubChem BioAssay AID1224826 (NIAID, 2016)

Aim: 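Knock-downs that raise or lower Tnf reporter signal after endotoxin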 (primary screen)
Cell system: RAW264.7 G9 macrophages from mouse bearing reporters for p65 (GFP) and the Tnf promoter (mCherry)
Knock-down reagent: siRNA pool against mouse genes, 100 nM
Timing: 16 h of LPS stimulation, after 2 days of siRNA transfection
Conditions: bacterial lipopolysaccharide (Salmonella minnesota R595), 10 ng/ml
Read-out: 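Imaged Tnf reporter mCherry in nuclei, minus background, normalised per plate to the median and expressed as robust z-scores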
Scale: Tnf reporter robust z-score: higher = stronger Tnf promoter reporter signal after LPS; Tnf reporter intensity: higher = stronger Tnf promoter reporter signal
Active means: 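a well counts as active at a score of -1.3 or below (Tlr4 knock-down control median) or above 3 (raised signal); controls and wells holding fewer than 50 cells are excluded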
Meaning of the calls: active = Tnf reporter clearly lowered or raised; inactive = no clear change in Tnf reporter
Shown is one part, drawn at random, of about 17,000 reagents tested. Over the whole deposit, about 1,110 (6.6%) are marked active. 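Active means lowered or raised reporter signal; replicate intensities are raw and not normalised per plate.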 The numbers tell different reagents against one gene apart. Further read-outs or replicates are left out here.

gene	reagent	Tnf reporter robust z-score	fewer than 50 cells in well	Tnf reporter intensity, replicate 1	Call
Klf15 (Kruppel-like transcription factor 15)	1	-0.73	enough cells in well	191	inactive
Skint4 (selection and upkeep of intraepithelial T cells 4)	1	-1.22	enough cells in well	110	inactive
Araf (Araf proto-oncogene, serine/threonine kinase)	1	-0.86	enough cells in well	149	inactive
Cops3 (COP9 signalosome subunit 3)	1	-0.02	enough cells in well	211	inactive
Svs4 (seminal vesicle secretory protein 4)	1	-0.59	enough cells in well	87.6	inactive
Actr10 (ARP10 actin-related protein 10)	1	-0.42	enough cells in well	98.3	inactive
Cenpk (centromere protein K)	1		fewer than 50 cells per well; well left out of calls	95.1	inactive
Pole4 (polymerase (DNA-directed), epsilon 4 (p12 subunit))	1	-0.79	enough cells in well	106	inactive
Fmr1nb (Fmr1 neighbor)	1		fewer than 50 cells per well; well left out of calls	143	inactive
Ntng2 (netrin G2)	1	1.91	enough cells in well	267	inactive
Msrb3 (methionine sulfoxide reductase B3)	1	1.2	enough cells in well	297	inactive
Or5b24 (olfactory receptor family 5 subfamily B member 24)	1	-0.23	enough cells in well	161	inactive
Mrpl42 (mitochondrial ribosomal protein L42)	1		fewer than 50 cells per well; well left out of calls	141	inactive
Rmp64 (ribonuclease MRP subunit p64)	1	-0.5	enough cells in well	165	inactive
Ube2v1 (ubiquitin-conjugating enzyme E2 variant 1)	1	0.78	enough cells in well	161	inactive
Mboat1 (membrane bound O-acyltransferase domain containing 1)	1	-1.25	enough cells in well	116	inactive
Midn (midnolin)	1	1.22	enough cells in well	201	inactive
Zfp772 (zinc finger protein 772)	1	0.35	enough cells in well	222	inactive
Rps17 (ribosomal protein S17)	1		fewer than 50 cells per well; well left out of calls	42.8	inactive
Or6c66 (olfactory receptor family 6 subfamily C member 66)	1		fewer than 50 cells per well; well left out of calls	15.1	inactive
Or5bw2 (olfactory receptor family 5 subfamily BW member 2)	1	-1.03	enough cells in well	123	inactive
Bckdha (branched chain ketoacid dehydrogenase E1, alpha polypeptide)	1	-0.06	enough cells in well	144	inactive
Cbx1 (chromobox 1)	1	0.21	enough cells in well	249	inactive
9330175E14Rik (RIKEN cDNA 9330175E14 gene)	1	-0.56	enough cells in well	159	inactive
9330175E14Rik (RIKEN cDNA 9330175E14 gene)	2	-0.9	enough cells in well	126	inactive
Serbp1 (serpine1 mRNA binding protein 1)	1	4.3	enough cells in well	401	active
Higd1b (HIG1 domain family, member 1B)	1		fewer than 50 cells per well; well left out of calls	206	inactive
Adrb3 (adrenergic receptor, beta 3)	1	0.67	enough cells in well	251	inactive
Nup58 (nucleoporin 58)	1	-1.2	enough cells in well	149	inactive
P3h1 (prolyl 3-hydroxylase 1)	1	2.33	enough cells in well	340	inactive
Slc25a25	1	2.56	enough cells in well	186	inactive
Reep5 (receptor accessory protein 5)	1	0.35	enough cells in well	179	inactive
Thada (thyroid adenoma associated)	1	-0.75	enough cells in well	118	inactive
Thada (thyroid adenoma associated)	2	2.45	enough cells in well	357	inactive
Bcl2l14 (BCL2 like 14)	1	2.25	enough cells in well	217	inactive
Ica1l (islet cell autoantigen 1-like)	1	-0.09	enough cells in well	198	inactive
Txndc16 (thioredoxin domain containing 16)	1	-0.27	enough cells in well	131	inactive
Fzd7 (frizzled class receptor 7)	1	0.02	enough cells in well	192	inactive
Barhl1 (BarH like homeobox 1)	1	-0.48	enough cells in well	171	inactive

Called active (from the list above):
gene	reagent	Tnf reporter robust z-score	fewer than 50 cells in well	Tnf reporter intensity, replicate 1	Call
Serbp1 (serpine1 mRNA binding protein 1)	1	4.3	enough cells in well	401	active

More records follow:
gene	reagent	Tnf reporter robust z-score	fewer than 50 cells in well	Tnf reporter intensity, replicate 1	Call
Klhdc7a (kelch domain containing 7A)	1	0.05	enough cells in well	165	inactive
Mrpl24 (mitochondrial ribosomal protein L24)	1	-0.22	enough cells in well	213	inactive
Ccl21b (C-C motif chemokine ligand 21B (leucine))	1	0.28	enough cells in well	193	inactive
Ppa2 (pyrophosphatase (inorganic) 2)	1	-0.65	enough cells in well	104	inactive
Pbsn (probasin)	1	1.63	enough cells in well	238	inactive
Emc4 (ER membrane protein complex subunit 4)	1	-0.3	enough cells in well	263	inactive
Prkag3 (protein kinase, AMP-activated, gamma 3 non-catalytic subunit)	1	0.5	enough cells in well	181	inactive
Micos13	1	3.84	enough cells in well	530	active
Nefl (neurofilament, light polypeptide)	1	-0.28	enough cells in well	229	inactive
Socs1 (suppressor of cytokine signaling 1)	1	0.48	enough cells in well	254	inactive
Map4k4 (mitogen-activated protein kinase kinase kinase kinase 4)	1	-0.63	enough cells in well	153	inactive
Cst8 (cystatin 8 (cystatin-related epididymal spermatogenic))	1	2	enough cells in well	299	inactive
Sik2 (salt inducible kinase 2)	1	0.21	enough cells in well	247	inactive
Flad1 (flavin adenine dinucleotide synthetase 1)	1	1.53	enough cells in well	234	inactive
Mmp1a (matrix metallopeptidase 1a (interstitial collagenase))	1	0.9	enough cells in well	370	inactive
Slc22a5	1	0.91	enough cells in well	357	inactive
Prkar1b (protein kinase, cAMP dependent regulatory, type I beta)	1	-0.64	enough cells in well	218	inactive
Ogfod1	1	1.6	enough cells in well	263	inactive
Khsrp (KH-type splicing regulatory protein)	1	0.96	enough cells in well	277	inactive
Rai1 (retinoic acid induced 1)	1	0.39	enough cells in well	379	inactive
Gjd3 (gap junction protein, delta 3)	1	-0.02	enough cells in well	201	inactive
Rasal2 (RAS protein activator like 2)	1	-1.01	enough cells in well	103	inactive
Rasal2 (RAS protein activator like 2)	2	-0.25	enough cells in well	134	inactive
Nap1l3 (nucleosome assembly protein 1-like 3)	1	0.98	enough cells in well	255	inactive
Eml6 (echinoderm microtubule associated protein like 6)	1	-0.14	enough cells in well	116	inactive
Eif4a2 (eukaryotic translation initiation factor 4A2)	1	-0.82	enough cells in well	159	inactive
Gm20555 (predicted gene, 20555)	1	0.15	enough cells in well	138	inactive
Dcaf8l (DDB1 and CUL4 associated factor 8 like)	1	1.83	enough cells in well	223	inactive
Clptm1l (CLPTM1-like)	1	-0.38	enough cells in well	78.9	inactive
Rhoh (ras homolog family member H)	1		fewer than 50 cells per well; well left out of calls	129	inactive
Prdm4 (PR domain containing 4)	1	-0.1	enough cells in well	197	inactive
Rbm48 (RNA binding motif protein 48)	1	-0.02	enough cells in well	96.5	inactive
Insm2 (insulinoma-associated 2)	1	-0.04	enough cells in well	190	inactive
Fbxl15 (F-box and leucine-rich repeat protein 15)	1	0.77	enough cells in well	309	inactive
Ap2b1 (adaptor-related protein complex 2, beta 1 subunit)	1		fewer than 50 cells per well; well left out of calls	79.4	inactive
Grin1 (glutamate receptor, ionotropic, NMDA1 (zeta 1))	1	1.51	enough cells in well	378	inactive
